At least one structure is not confirmed: it was looked up by name or label, or the drawing left a doubt.
Biological target: SARS-CoV-2 PLpro (Severe acute respiratory syndrome coronavirus 2, UniProt P0DTD1)
Format: biochemical
Conditions: time-dependent inhibition yes/no

SMILES: COC(=O)/C=C/C(=O)NNC(=O)CCc1ccc(NC(C)=O)cc1C(=O)N[C@H](C)c1cccc2ccccc12 [Compound 8, methyl-(R,E)-4-(2-(3-(4-acetamido-2-((1-(naphthalen-1-yl)ethyl)carbamoyl)phenyl)propanoyl)hydrazineyl)-4-oxobut-2-enoate]
- Time dep.: yes
